The record followed here is the supplement of paper PMC10849652.

Protein sequences, listed by entry. Tags and fused reporters are not part of them. Lines headed by an entry give the natural chain unless they say otherwise; changes in a name come on top.
UniProt O14796: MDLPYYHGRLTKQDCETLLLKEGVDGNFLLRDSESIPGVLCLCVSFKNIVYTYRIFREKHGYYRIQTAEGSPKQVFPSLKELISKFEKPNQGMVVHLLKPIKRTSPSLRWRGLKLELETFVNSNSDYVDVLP
UniProt Q9BWJ5: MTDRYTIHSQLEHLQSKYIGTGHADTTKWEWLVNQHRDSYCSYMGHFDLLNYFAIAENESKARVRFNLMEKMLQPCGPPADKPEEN
UniProt P04279: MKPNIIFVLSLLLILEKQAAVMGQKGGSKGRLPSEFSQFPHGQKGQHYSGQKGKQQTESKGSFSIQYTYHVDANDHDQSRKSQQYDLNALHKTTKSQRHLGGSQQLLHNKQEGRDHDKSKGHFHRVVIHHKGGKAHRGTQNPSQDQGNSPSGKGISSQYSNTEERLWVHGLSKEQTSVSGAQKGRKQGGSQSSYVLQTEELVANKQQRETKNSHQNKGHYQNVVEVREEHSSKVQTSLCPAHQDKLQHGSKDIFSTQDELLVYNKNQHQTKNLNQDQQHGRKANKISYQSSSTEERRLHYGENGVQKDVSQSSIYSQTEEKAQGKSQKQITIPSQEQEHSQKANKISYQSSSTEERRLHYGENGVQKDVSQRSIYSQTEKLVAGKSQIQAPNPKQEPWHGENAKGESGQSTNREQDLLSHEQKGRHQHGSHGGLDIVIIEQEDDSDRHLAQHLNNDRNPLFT
UniProt Q99963: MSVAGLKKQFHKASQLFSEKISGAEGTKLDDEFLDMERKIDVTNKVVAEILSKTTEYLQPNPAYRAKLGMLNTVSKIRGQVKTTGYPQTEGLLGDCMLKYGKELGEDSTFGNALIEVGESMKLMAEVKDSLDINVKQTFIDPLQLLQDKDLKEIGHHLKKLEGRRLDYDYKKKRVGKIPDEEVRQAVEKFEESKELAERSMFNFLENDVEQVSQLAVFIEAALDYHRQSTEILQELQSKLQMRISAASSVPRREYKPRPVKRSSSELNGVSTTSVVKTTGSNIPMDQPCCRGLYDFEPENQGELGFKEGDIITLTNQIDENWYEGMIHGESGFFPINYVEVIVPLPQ
UniProt P36952: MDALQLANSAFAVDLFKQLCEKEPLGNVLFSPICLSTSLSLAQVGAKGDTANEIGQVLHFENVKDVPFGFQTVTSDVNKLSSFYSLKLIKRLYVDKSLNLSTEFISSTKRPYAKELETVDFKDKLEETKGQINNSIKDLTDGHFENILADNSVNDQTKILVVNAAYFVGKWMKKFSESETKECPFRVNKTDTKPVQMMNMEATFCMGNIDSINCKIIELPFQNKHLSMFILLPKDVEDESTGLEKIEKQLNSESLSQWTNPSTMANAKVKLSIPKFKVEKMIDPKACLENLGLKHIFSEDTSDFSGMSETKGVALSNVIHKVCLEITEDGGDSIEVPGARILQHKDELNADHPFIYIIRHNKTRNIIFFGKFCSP
UniProt Q96BD8: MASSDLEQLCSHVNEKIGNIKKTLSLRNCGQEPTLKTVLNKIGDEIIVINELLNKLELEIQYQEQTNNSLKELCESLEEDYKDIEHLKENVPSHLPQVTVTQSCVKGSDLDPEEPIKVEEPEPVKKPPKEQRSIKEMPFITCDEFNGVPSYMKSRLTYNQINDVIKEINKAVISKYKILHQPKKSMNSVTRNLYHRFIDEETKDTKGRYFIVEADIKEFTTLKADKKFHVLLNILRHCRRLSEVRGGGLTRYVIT
UniProt Q16181: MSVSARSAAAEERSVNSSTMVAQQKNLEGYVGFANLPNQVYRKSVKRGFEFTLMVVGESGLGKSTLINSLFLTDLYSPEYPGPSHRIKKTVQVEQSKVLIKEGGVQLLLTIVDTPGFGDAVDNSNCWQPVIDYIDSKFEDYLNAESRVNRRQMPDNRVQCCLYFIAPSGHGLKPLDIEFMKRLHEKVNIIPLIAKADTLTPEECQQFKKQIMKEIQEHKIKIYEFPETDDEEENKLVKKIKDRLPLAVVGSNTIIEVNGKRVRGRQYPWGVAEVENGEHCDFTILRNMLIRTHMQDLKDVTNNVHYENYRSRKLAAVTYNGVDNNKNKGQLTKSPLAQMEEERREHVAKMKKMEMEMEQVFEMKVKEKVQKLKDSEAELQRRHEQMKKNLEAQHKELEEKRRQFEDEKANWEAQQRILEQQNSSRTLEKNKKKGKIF
UniProt P51688: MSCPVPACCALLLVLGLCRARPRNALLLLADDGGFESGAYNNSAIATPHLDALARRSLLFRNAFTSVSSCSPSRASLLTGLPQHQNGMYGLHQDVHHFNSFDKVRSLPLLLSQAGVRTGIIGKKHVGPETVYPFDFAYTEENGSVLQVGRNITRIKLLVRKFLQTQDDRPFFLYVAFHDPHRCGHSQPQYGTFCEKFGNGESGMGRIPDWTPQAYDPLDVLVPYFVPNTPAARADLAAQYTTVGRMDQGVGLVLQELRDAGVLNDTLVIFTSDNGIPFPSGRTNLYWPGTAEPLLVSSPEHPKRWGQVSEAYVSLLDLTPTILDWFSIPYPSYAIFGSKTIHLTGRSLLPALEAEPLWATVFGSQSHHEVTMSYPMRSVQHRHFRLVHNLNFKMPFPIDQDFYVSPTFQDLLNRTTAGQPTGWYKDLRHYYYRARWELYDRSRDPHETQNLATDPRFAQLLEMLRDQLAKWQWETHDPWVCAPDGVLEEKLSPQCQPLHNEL
UniProt Q9NRX5: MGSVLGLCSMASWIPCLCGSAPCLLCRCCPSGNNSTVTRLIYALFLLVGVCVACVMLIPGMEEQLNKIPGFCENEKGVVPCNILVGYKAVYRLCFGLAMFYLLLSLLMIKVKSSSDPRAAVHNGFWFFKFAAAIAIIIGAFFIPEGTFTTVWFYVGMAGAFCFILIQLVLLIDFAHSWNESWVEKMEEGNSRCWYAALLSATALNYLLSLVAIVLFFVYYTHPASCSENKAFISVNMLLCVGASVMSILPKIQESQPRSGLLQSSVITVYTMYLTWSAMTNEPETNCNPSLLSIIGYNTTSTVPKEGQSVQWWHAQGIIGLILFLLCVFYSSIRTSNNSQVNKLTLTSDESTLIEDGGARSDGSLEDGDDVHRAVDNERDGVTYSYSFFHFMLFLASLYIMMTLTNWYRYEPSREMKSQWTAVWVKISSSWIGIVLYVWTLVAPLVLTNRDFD
UniProt Q8IW75: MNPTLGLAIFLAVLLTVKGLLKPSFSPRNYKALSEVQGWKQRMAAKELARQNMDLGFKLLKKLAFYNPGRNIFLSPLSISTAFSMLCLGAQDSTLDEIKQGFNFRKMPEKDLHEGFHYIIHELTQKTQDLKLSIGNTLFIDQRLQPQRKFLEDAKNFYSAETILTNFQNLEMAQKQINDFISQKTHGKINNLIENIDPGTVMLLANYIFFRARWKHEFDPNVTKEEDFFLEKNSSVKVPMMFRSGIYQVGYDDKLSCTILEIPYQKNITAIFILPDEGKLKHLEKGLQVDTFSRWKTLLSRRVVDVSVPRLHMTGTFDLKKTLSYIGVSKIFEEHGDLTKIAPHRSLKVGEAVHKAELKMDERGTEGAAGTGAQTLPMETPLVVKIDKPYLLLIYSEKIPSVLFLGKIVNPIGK
UniProt Q6PI26: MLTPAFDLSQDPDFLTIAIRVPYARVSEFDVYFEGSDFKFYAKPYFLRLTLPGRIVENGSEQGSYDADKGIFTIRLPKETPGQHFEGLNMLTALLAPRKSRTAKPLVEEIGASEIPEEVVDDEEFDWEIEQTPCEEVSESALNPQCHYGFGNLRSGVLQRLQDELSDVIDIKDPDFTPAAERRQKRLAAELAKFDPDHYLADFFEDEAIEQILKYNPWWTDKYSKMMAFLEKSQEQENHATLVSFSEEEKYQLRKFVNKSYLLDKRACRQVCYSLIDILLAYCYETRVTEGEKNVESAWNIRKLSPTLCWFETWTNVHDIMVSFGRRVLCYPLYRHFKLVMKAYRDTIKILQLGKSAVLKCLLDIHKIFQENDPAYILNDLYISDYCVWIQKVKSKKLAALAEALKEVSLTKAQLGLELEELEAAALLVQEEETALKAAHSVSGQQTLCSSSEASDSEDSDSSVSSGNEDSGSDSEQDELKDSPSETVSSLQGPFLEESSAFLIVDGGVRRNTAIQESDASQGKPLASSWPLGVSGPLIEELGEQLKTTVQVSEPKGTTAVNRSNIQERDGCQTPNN
UniProt P05546: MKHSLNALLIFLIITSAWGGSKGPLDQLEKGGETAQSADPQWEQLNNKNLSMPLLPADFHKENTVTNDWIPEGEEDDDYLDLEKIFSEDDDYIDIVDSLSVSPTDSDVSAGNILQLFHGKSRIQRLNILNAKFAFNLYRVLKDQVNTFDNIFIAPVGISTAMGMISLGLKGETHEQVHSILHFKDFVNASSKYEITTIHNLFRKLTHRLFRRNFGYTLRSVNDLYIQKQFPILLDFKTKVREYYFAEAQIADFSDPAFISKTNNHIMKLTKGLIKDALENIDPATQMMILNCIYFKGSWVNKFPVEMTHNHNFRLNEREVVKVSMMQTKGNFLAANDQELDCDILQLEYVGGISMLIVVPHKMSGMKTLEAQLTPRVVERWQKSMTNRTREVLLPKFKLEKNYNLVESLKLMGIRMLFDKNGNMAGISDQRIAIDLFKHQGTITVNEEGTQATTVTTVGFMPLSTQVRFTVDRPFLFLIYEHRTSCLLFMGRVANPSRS
UniProt Q9NTG7: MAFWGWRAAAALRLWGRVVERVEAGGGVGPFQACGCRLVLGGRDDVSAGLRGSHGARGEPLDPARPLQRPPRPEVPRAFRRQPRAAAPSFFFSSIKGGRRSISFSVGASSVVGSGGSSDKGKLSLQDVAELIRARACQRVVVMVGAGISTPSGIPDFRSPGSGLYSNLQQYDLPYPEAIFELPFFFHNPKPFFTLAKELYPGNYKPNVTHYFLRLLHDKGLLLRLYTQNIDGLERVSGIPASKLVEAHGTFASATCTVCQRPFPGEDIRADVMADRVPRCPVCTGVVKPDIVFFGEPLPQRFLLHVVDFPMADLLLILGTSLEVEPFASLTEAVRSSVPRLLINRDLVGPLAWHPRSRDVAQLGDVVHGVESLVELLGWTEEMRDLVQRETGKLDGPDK
UniProt Q9ULL8: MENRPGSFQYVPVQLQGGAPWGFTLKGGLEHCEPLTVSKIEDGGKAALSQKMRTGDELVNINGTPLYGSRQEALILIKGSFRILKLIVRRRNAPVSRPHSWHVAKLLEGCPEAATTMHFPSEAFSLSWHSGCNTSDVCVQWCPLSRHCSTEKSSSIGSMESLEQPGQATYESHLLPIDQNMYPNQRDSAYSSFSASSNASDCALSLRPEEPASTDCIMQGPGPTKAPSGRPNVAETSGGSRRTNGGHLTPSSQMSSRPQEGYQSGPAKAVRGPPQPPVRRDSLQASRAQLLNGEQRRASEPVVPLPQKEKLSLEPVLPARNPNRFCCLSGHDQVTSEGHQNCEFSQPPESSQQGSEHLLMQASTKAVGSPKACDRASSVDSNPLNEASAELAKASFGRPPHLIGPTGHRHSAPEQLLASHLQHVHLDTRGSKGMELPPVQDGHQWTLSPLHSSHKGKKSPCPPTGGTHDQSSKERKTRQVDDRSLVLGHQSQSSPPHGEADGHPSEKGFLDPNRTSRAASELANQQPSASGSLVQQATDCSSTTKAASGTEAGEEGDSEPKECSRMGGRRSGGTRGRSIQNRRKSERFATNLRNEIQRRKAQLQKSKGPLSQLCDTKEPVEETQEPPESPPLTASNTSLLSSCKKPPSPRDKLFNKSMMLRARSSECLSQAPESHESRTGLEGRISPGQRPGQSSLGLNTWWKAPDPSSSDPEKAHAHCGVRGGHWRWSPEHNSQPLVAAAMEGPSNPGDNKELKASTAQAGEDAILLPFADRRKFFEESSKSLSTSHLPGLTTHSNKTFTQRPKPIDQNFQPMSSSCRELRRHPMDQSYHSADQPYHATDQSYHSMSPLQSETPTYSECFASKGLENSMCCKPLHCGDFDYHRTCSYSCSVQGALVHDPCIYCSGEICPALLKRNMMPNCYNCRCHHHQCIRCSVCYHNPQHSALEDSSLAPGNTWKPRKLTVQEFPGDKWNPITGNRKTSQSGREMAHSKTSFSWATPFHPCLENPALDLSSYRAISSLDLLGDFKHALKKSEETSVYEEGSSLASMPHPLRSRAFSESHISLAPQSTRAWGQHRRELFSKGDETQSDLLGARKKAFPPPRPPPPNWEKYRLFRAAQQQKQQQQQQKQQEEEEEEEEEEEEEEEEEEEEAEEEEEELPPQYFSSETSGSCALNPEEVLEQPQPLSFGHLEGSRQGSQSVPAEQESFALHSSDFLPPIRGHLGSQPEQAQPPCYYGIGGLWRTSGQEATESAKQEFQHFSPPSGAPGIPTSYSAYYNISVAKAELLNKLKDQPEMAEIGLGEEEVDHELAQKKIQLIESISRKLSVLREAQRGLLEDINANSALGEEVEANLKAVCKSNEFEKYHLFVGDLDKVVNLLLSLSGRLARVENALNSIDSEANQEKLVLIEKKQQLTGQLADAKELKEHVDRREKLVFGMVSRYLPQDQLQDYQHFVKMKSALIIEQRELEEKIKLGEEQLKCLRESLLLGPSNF

This is one part of the list.

Common to all, as to test: log2 fold change, soluble protein after heating vs DMSO (PISA); higher = thermal stabilisation; K562 cells, 10 uM, 30 min; active = over 0.2 and 3.5 SD of the protein, either way, in both replicates (recomputed)
Compound in assay [1]: C1=CC=C(C=C1)[C@H](COC2=CC3=C(C=C2)NC(=O)N3)NC(=O)C4=CC=CN(C4=O)CC5=CC(=C(C=C5)F)F
The essentials:
(§1)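 Aliquots of K562 cells (2×10^6 cells/mL) treated with 10 μM compound for 30 min were heated for 3 min over 48°C-58°C. After pooling and extraction in PBS with 0.5% NP-40 at 4°C, soluble protein from a 21,000xg, 90 min spin was quantified by TMTpro 16plex LC-MS/MS with channel sums equalised. Thermal stability is expressed against control samples, from duplicates, as a log2 fold change.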

Compound in assay [2]: CC1=C(SC2=C1C(=N[C@H](C3=NN=C(N32)C)CC(=O)N)C4=CC=C(C=C4)Cl)C
Put shortly:
as §1

Compound in assay [3]: c1ccc([C@@H]2C[C@H]2NC2CCNCC2)cc1
Put shortly: as §1

Compound in assay [4]: CC1=C2C(=CC=C1)N=C(N(C2=O)C3=CC=CC=C3C)CN4C=NC5=C(N=CN=C54)N
The essentials: as §1

Compound in assay [5]: Cc1sc2c(c1C)C(c1ccc(Cl)cc1)=N[C@@H](CC(=O)OC(C)(C)C)c1nnc(C)n1-2
The essentials: as §1

In the case of SH3BGR (UniProt P55822), the log2 fold change was inactive: -0.004 in assay [1], inactive: -0.001 in assay [2] and inactive: 0.001 in assay [3].
For the target SH2D1B (UniProt O14796), the log2 fold change in assay [2] was inactive: 0.205; in assay [4], inactive: -0.047; in assay [5], inactive: 0.003; in assay [3], inactive: 0.033.
For SF3B5 (UniProt Q9BWJ5), the values for the log2 fold change in assay [1], in assay [4] and in assay [5] were inactive: 0.056, inactive: -0.032 and inactive: 0.007, respectively.
In the case of SEMG1 (UniProt P04279), the log2 fold change is inactive: 0.115 in assay [2] and inactive: -0.081 in assay [3].
For the target SH3GL3 isoform 3 (UniProt Q99963), the log2 fold change is inactive: 0.123 in assay [4] and inactive: -0.108 in assay [5].
Turning to SERPINB5 (UniProt P36952), the log2 fold change in assay [1] was inactive: -0.092; in assay [4], inactive: 0.035; in assay [5], inactive: -0.961.
Take SKA1 (UniProt Q96BD8): the log2 fold change in assay [2] is inactive: -0.222; in assay [4], inactive: -0.132; in assay [3] it was inactive: -0.091.
Consider SERPINB6, A0A2R8Y7E5, for which the log2 fold change was inactive: -0.269 in assay [1] and inactive: 0.138 in assay [4].
SEPTIN7 isoform 2 (UniProt Q16181): in assay [5], the log2 fold change is inactive: 0.094.
Same read-out and setting: in the case of SESN1 isoform 2 (UniProt Q9Y6P5) it was inactive: -0.002.
With SGSH (UniProt P51688), the log2 fold change was inactive: -0.051 in assay [2] and inactive: 0.073 in assay [3].
For the target SERINC1 (UniProt Q9NRX5), the log2 fold change was inactive: 0.021 in assay [1], inactive: 0.027 in assay [4] and inactive: -0.08 in assay [5].
As for SH2D2A isoform 2 (UniProt Q9NP31), the log2 fold change is inactive: 0.136 in assay [2] and inactive: -0.05 in assay [3].
Regarding SECISBP2L (UniProt Q93073), the log2 fold change in assay [4] is inactive: -0.168.
SHFL (UniProt Q9NUL5): the log2 fold change in assay [1] was inactive: -0.006; in assay [5], inactive: -0.506.
In the case of SERPINA12 (UniProt Q8IW75), the log2 fold change in assay [4] was inactive: -0.323; in assay [5] it was inactive: -0.258.
As for SELENON (UniProt Q9NZV5), the log2 fold change in assay [4] is inactive: -0.048.
As to SFXN1 (UniProt D6RDG7), in assay [5], the log2 fold change is inactive: 0.12.
As to SETDB1 (UniProt Q15047), the log2 fold change in assay [2] was inactive: 0.235; in assay [4] it was inactive: 0.187; in assay [5], inactive: -0.02; in assay [3], inactive: -0.175.
Regarding SKAP2 (UniProt O75563), in assay [5], the log2 fold change was inactive: -0.037.
Take SERPINB7 (UniProt O75635): the log2 fold change is inactive: 0.245 in assay [1], inactive: 0.176 in assay [4] and inactive: -0.052 in assay [5].
Consider SERPING1 isoform 3 (UniProt P05155), for which the log2 fold change in assay [2] is inactive: -0.126; in assay [5], inactive: -0.015; in assay [3] it was inactive: 0.113.
Take SH2D3A (UniProt Q9BRG2): the log2 fold change in assay [4] was inactive: -0.061.
For SH2B1 (UniProt Q9NRF2), the log2 fold change in assay [4] is inactive: -0.262.
Consider SHROOM1 (UniProt Q2M3G4), for which the log2 fold change in assay [1] was inactive: -0.2; in assay [2], inactive: -0.036; in assay [3], inactive: 0.068.
For the target SHQ1 (UniProt Q6PI26), in assay [4], the log2 fold change is inactive: 0.033.
As to SERBP1 isoform 3 (UniProt Q8NC51), the log2 fold change was inactive: 0.074 in assay [1] and inactive: -0.126 in assay [5].
For SERPIND1 (UniProt P05546), the values for the log2 fold change in assay [2] and in assay [3] were inactive: -0.112 and inactive: 0.053, respectively.
With SIRT3 (UniProt Q9NTG7), the log2 fold change in assay [4] was inactive: 0.039.
Take SETD2 (UniProt Q9BYW2): the log2 fold change in assay [5] was inactive: 0.014.
SHROOM4 (UniProt Q9ULL8): the results for the log2 fold change in assay [2], in assay [4] and in assay [3] were inactive: -0.253, inactive: -0.188 and inactive: 0.12, respectively.
In the case of SELENOT (UniProt P62341), the log2 fold change in assay [1] was inactive: -0.024; in assay [4], inactive: 0.183; in assay [5], inactive: -0.084.
Take SEPTIN2 (UniProt B5MCX3): the log2 fold change in assay [4] is inactive: 0.386; in assay [5] it was inactive: 0.19.
